The target in experiment [1] is T1, FLAG-tagged CRLF1 (Cytokine Receptor-Like Factor 1) (UniProt O75462).
T1 sequence: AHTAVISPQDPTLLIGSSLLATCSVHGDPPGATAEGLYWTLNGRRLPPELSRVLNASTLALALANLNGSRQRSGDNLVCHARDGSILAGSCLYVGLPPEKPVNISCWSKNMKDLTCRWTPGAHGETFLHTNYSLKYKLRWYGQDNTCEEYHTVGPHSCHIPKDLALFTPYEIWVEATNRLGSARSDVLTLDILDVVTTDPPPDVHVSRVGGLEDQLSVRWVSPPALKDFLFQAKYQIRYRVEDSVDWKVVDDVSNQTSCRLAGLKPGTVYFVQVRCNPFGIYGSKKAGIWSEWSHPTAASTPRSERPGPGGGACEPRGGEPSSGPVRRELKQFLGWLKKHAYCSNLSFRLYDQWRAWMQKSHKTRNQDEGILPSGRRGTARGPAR
Put plainly: co-IP; exogenous FLAG-CRLF1 and His-MYH9 in IHH4 cells; antibodies against FLAG or His, rabbit IgG as control, protein A/G agarose, 4°C; lysis buffer 20 mM Tris-HCl pH 7.5, 150 mM NaCl, 1% Nonidet P-40, 1% sodium deoxycholate; immunoblotting.

Sequences of proteins named here, by UniProt entry; tags and fusion partners are left off.
UniProt P35579: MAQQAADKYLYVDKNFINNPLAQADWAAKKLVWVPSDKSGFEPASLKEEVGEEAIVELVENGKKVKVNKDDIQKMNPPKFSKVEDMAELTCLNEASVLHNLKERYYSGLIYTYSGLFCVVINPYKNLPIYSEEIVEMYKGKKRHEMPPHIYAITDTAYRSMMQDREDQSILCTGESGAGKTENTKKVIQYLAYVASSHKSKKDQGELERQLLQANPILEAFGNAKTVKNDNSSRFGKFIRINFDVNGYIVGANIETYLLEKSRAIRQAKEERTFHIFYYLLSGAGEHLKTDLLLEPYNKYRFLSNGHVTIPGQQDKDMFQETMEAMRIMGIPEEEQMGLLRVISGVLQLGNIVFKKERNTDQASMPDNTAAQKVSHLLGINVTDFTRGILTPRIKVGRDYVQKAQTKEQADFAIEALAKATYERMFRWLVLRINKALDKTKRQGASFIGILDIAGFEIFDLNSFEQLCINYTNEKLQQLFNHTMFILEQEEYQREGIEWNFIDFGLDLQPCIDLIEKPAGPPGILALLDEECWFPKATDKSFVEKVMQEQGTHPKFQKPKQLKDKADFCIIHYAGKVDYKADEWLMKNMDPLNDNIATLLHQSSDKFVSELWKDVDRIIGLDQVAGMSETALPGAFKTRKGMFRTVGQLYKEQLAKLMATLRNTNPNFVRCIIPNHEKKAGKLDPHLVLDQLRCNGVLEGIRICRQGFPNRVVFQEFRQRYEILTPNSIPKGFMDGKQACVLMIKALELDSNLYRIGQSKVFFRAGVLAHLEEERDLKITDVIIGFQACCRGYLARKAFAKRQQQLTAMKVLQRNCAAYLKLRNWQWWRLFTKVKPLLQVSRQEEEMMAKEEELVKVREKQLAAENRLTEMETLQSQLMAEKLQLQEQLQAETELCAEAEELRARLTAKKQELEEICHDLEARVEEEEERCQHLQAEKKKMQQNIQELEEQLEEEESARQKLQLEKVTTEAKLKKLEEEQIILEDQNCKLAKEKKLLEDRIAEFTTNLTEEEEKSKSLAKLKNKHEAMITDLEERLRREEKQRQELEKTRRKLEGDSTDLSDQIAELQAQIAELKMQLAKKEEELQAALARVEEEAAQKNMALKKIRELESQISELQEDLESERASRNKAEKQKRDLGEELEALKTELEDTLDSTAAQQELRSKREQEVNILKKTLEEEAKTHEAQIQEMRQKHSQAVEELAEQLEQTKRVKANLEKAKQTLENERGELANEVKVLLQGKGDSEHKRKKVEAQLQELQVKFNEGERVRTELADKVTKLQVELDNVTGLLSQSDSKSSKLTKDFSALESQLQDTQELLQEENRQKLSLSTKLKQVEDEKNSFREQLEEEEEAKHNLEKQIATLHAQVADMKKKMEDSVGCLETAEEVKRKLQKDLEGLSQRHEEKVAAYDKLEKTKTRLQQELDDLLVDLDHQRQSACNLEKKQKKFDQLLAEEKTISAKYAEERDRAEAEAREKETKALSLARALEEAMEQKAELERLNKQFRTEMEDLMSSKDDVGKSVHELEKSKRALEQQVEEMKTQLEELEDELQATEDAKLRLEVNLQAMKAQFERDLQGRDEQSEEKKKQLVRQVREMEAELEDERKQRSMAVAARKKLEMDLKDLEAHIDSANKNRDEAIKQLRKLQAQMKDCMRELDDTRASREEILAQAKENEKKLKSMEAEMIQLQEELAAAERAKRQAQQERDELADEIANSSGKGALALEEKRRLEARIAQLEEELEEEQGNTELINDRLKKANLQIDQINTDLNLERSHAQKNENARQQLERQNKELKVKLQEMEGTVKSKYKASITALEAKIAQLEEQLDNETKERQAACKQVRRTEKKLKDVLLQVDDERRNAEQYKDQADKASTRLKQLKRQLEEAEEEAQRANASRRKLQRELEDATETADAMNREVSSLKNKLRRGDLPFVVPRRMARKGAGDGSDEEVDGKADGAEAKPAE

In experiment [2] the target is T2, CRLF1 (Cytokine Receptor-Like Factor 1), endogenous (human (endogenous in BCPAP)) (UniProt O75462).
T2 sequence: T1 sequence
The experiment can be described thus: co-IP; endogenous CRLF1 and MYH9 in BCPAP cells; precipitating antibody not told; immunoblotting.

Results are given in words; binding and its absence hold for the method and conditions named. In cells and extracts the contact can be indirect. Some binding calls cover weakened binding; strength is not graded here. For some assays here: Sequences can lack the tags named with a protein.

As for “His-tagged MYH9 (from UniProt P35579 1-1960)”, the binding result in experiment [1] is “binds”.
As to “MYH9 (non-muscle myosin heavy-chain IIA protein), endogenous (from UniProt P35579 1-1960)”, the binding result in experiment [2] is listed as “binds”.
